Data: doi:10.1101/2020.09.06.285270
Results are given in words; binding and its absence hold for the method and conditions named. In cells and extracts the contact can be indirect. Where a sequence is shown, tags or fusion partners need not be part of it.

Biological target: T1, GST-CSK SH2 domain (UniProt P41240)
T1 sequence: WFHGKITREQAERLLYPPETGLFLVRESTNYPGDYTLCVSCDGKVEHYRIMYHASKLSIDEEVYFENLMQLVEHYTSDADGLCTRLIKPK
Test: pull-down

Substance: GFP-PAR-3 ΔCter (rat) (domain or fragment)
- binding: no binding
